The values below come from patent US11065203B2, “Liposomal compositions and uses of same” (Technion Research & Development Foundation Limited, priority 2009, dated 2021).

This series in a line: Proteomics analysis (trypsin digest, LC-MS/MS) of hMSC ghosts and derived CDLs, conditioned or unconditioned by PC3 medium. As to conditions: LC-MS/MS peak area per protein; for Ratio of expression Cond. CDLs/Cond. Ghosts: CDLs derived from conditioned hMSCs versus conditioned ghosts; for Ratio of expression Cond Ghosts/Ghosts: hMSC ghosts conditioned by PC3 medium versus unconditioned ghosts. The arrangement: species or system human.

B1: O15260 (protein, UniProt O15260 1-269, looked up)
chain: MGQNDLMGTAEDFADQFLRVTKQYLPHVARLCLISTFLEDGIRMWFQWSEQRDYIDTTWNCGYLLASSFVFLNLLGQLTGCVLVLSRNFVQYACFGLFGIIALQTIAYSILWDLKFLMRNLALGGGLLLLLAESRSEGKSMFAGVPTMRESSPKQYMQLGGRVLLVLMFMTLLHFDASFFSIVQNIVGTALMILVAIGFKTKLAALTLVVWLFAINVYFNAFWTIPVYKPMHDFLKYDFFQTMSVIGGLLLVVALGPGGVSMDEKKKEW
modifications: full-length
Regarding B1, the “Ratio of expression Cond. CDLs/Cond. Ghosts” value was determined as 0% and the “Ratio of expression Cond Ghosts/Ghosts” value is 100%.

B2: Q02978 (protein, UniProt Q02978 1-314, looked up)
chain: MAATASAGAGGIDGKPRTSPKSVKFLFGGLAGMGATVFVQPLDLVKNRMQLSGEGAKTREYKTSFHALTSILKAEGLRGIYTGLSAGLLRQATYTTTRLGIYTVLFERLTGADGTPPGFLLKAVIGMTAGATGAFVGTPAEVALIRMTADGRLPADQRRGYKNVFNALIRITREEGVLTLWRGCIPTMARAVVVNAAQLASYSQSKQFLLDSGYFSDNILCHFCASMISGLVTTAASMPVDIAKTRIQNMRMIDGKPEYKNGLDVLFKVVRYEGFFSLWKGFTPYYARLGPHTVLTFIFLEQMNKAYKRLFLSG
modifications: full-length
On to B2, for which the “Ratio of expression Cond. CDLs/Cond. Ghosts” value was 3% and the “Ratio of expression Cond Ghosts/Ghosts” value is recorded as 193%.

B3: Q6DD88 (protein, UniProt Q6DD88 1-541, looked up)
chain: MLSPQRVAAAASRGADDAMESSKPGPVQVVLVQKDQHSFELDEKALASILLQDHIRDLDVVVVSVAGAFRKGKSFILDFMLRYLYSQKESGHSNWLGDPEEPLTGFSWRGGSDPETTGIQIWSEVFTVEKPGGKKVAVVLMDTQGAFDSQSTVKDCATIFALSTMTSSVQIYNLSQNIQEDDLQQLQLFTEYGRLAMDEIFQKPFQTLMFLVRDWSFPYEYSYGLQGGMAFLDKRLQVKEHQHEEIQNVRNHIHSCFSDVTCFLLPHPGLQVATSPDFDGKLKDIAGEFKEQLQALIPYVLNPSKLMEKEINGSKVTCRGLLEYFKAYIKIYQGEDLPHPKSMLQATAEANNLAAAASAKDIYYNNMEEVCGGEKPYLSPDILEEKHCEFKQLALDHFKKTKKMGGKDFSFRYQQELEEEIKELYENFCKHNGSKNVFSTFRTPAVLFTGIVALYIASGLTGFIGLEVVAQLFNCMVGLLLIALLTWGYIRYSGQYRELGGAIDFGAAYVLEQASSHIGNSTQATVRDAVVGRPSMDKKAQ
modifications: full-length
In the case of B3, the “Ratio of expression Cond. CDLs/Cond. Ghosts” value is given as 1% and the “Ratio of expression Cond Ghosts/Ghosts” value was found to be 100%.

B4: Q9Y6C9 (protein, UniProt Q9Y6C9 1-303, looked up)
chain: MADAASQVLLGSGLTILSQPLMYVKVLIQVGYEPLPPTIGRNIFGRQVCQLPGLFSYAQHIASIDGRRGLFTGLTPRLCSGVLGTVVHGKVLQHYQESDKGEELGPGNVQKEVSSSFDHVIKETTREMIARSAATLITHPFHVITLRSMVQFIGRESKYCGLCDSIITIYREEGILGFFAGLVPRLLGDILSLWLCNSLAYLVNTYALDSGVSTMNEMKSYSQAVTGFFASMLTYPFVLVSNLMAVNNCGLAGGCPPYSPIYTSWIDCWCMLQKEGNMSRGNSLFFRKVPFGKTYCCDLKMLI
modifications: full-length
On to B4, for which the “Ratio of expression Cond. CDLs/Cond. Ghosts” value is given as 1% and the “Ratio of expression Cond Ghosts/Ghosts” value came to 100%.

B5: Q07021 (protein, UniProt Q07021 1-282, looked up)
chain: MLPLLRCVPRVLGSSVAGLRAAAPASPFRQLLQPAPRLCTRPFGLLSVRAGSERRPGLLRPRGPCACGCGCGSLHTDGDKAFVDFLSDEIKEERKIQKHKTLPKMSGGWELELNGTEAKLVRKVAGEKITVTFNINNSIPPTFDGEEEPSQGQKVEEQEPELTSTPNFVVEVIKNDDGKKALVLDCHYPEDEVGQEDEAESDIFSIREVSFQSTGESEWKDTNYTLNTDSLDWALYDHLMDFLADRGVDNTFADELVELSTALEHQEYITFLEDLKSFVKSQ
modifications: full-length
B5: the “Ratio of expression Cond. CDLs/Cond. Ghosts” value came to 1% and the “Ratio of expression Cond Ghosts/Ghosts” value worked out at 100%.

B6: P08559 (protein, UniProt P08559 1-390, looked up)
chain: MRKMLAAVSRVLSGASQKPASRVLVASRNFANDATFEIKKCDLHRLEEGPPVTTVLTREDGLKYYRMMQTVRRMELKADQLYKQKIIRGFCHLCDGQEACCVGLEAGINPTDHLITAYRAHGFTFTRGLSVREILAELTGRKGGCAKGKGGSMHMYAKNFYGGNGIVGAQVPLGAGIALACKYNGKDEVCLTLYGDGAANQGQIFEAYNMAALWKLPCIFICENNRYGMGTSVERAAASTDYYKRGDFIPGLRVDGMDILCVREATRFAAAYCRSGKGPILMELQTYRYHGHSMSDPGVSYRTREEIQEVRSKSDPIMLLKDRMVNSNLASVEELKEIDVEVRKEIEDAAQFATADPEPPLEELGYHIYSSDPPFEVRGANQWIKFKSVS
modifications: full-length
Turning to B6, the “Ratio of expression Cond. CDLs/Cond. Ghosts” value amounted to 0% and the “Ratio of expression Cond Ghosts/Ghosts” value is listed as 100%.

B7: O15460 (protein, UniProt O15460 1-535, looked up)
chain: MKLWVSALLMAWFGVLSCVQAEFFTSIGHMTDLIYAEKELVQSLKEYILVEEAKLSKIKSWANKMEALTSKSAADAEGYLAHPVNAYKLVKRLNTDWPALEDLVLQDSAAGFIANLSVQRQFFPTDEDEIGAAKALMRLQDTYRLDPGTISRGELPGTKYQAMLSVDDCFGMGRSAYNEGDYYHTVLWMEQVLKQLDAGEEATTTKSQVLDYLSYAVFQLGDLHRALELTRRLLSLDPSHERAGGNLRYFEQLLEEEREKTLTNQTEAELATPEGIYERPVDYLPERDVYESLCRGEGVKLTPRRQKRLFCRYHHGNRAPQLLIAPFKEEDEWDSPHIVRYYDVMSDEEIERIKEIAKPKLARATVRDPKTGVLTVASYRVSKSSWLEEDDDPVVARVNRRMQHITGLTVKTAELLQVANYGVGGQYEPHFDFSRNDERDTFKHLGTGNRVATFLNYMSDVEAGGATVFPDLGAAIWPKKGTAVFWYNLLRSGEGDYRTRHAACPVLVGCKWVSNKWFHERGQEFLRPCGSTEVD
modifications: full-length
In the case of B7, the “Ratio of expression Cond. CDLs/Cond. Ghosts” value is reported as 1% and the “Ratio of expression Cond Ghosts/Ghosts” value worked out at 100%.

B8: Q13724 (protein, UniProt Q13724 1-837, looked up)
chain: MARGERRRRAVPAEGVRTAERAARGGPGRRDGRGGGPRSTAGGVALAVVVLSLALGMSGRWVLAWYRARRAVTLHSAPPVLPADSSSPAVAPDLFWGTYRPHVYFGMKTRSPKPLLTGLMWAQQGTTPGTPKLRHTCEQGDGVGPYGWEFHDGLSFGRQHIQDGALRLTTEFVKRPGGQHGGDWSWRVTVEPQDSGTSALPLVSLFFYVVTDGKEVLLPEVGAKGQLKFISGHTSELGDFRFTLLPPTSPGDTAPKYGSYNVFWTSNPGLPLLTEMVKSRLNSWFQHRPPGAPPERYLGLPGSLKWEDRGPSGQGQGQFLIQQVTLKIPISIEFVFESGSAQAGGNQALPRLAGSLLTQALESHAEGFRERFEKTFQLKEKGLSSGEQVLGQAALSGLLGGIGYFYGQGLVLPDIGVEGSEQKVDPALFPPVPLFTAVPSRSFFPRGFLWDEGFHQLVVQRWDPSLTREALGHWLGLLNADGWIGREQILGDEARARVPPEFLVQRAVHANPPTLLLPVAHMLEVGDPDDLAFLRKALPRLHAWFSWLHQSQAGPLPLSYRWRGRDPALPTLLNPKTLPSGLDDYPRASHPSVTERHLDLRCWVALGARVLTRLAEHLGEAEVAAELGPLAASLEAAESLDELHWAPELGVFADFGNHTKAVQLKPRPPQGLVRVVGRPQPQLQYVDALGYVSLFPLLLRLLDPTSSRLGPLLDILADSRHLWSPFGLRSLAASSSFYGQRNSEHDPPYWRGAVWLNVNYLALGALHHYGHLEGPHQARAAKLHGELRANVVGNVWRQYQATGFLWEQYSDRDGRGMGCRPFHGWTSLVLLAMAEDY
modifications: full-length
B8: the “Ratio of expression Cond. CDLs/Cond. Ghosts” value came to 1% and the “Ratio of expression Cond Ghosts/Ghosts” value is 100%.

B9: Q53GQ0 (protein, UniProt Q53GQ0 1-312, looked up)
chain: MESALPAAGFLYWVGAGTVAYLALRISYSLFTALRVWGVGNEAGVGPGLGEWAVVTGSTDGIGKSYAEELAKHGMKVVLISRSKDKLDQVSSEIKEKFKVETRTIAVDFASEDIYDKIKTGLAGLEIGILVNNVGMSYEYPEYFLDVPDLDNVIKKMININILSVCKMTQLVLPGMVERSKGAILNISSGSGMLPVPLLTIYSATKTFVDFFSQCLHEEYRSKGVFVQSVLPYFVATKLAKIRKPTLDKPSPETFVKSAIKTVGLQSRTNGYLIHALMGSIISNLPSWIYLKIVMNMNKSTRAHYLKKTKKN
modifications: full-length
As for B9, the “Ratio of expression Cond. CDLs/Cond. Ghosts” value was 1% and the “Ratio of expression Cond Ghosts/Ghosts” value is on record as 100%.

B10: P11177 (protein, UniProt P11177 1-359, looked up)
chain: MAAVSGLVRRPLREVSGLLKRRFHWTAPAALQVTVRDAINQGMDEELERDEKVFLLGEEVAQYDGAYKVSRGLWKKYGDKRIIDTPISEMGFAGIAVGAAMAGLRPICEFMTFNFSMQAIDQVINSAAKTYYMSGGLQPVPIVFRGPNGASAGVAAQHSQCFAAWYGHCPGLKVVSPWNSEDAKGLIKSAIRDNNPVVVLENELMYGVPFEFPPEAQSKDFLIPIGKAKIERQGTHITVVSHSRPVGHCLEAAAVLSKEGVECEVINMRTIRPMDMETIEASVMKTNHLVTVEGGWPQFGVGAEICARIMEGPAFNFLDAPAVRVTGADVPMPYAKILEDNSIPQVKDIIFAIKKTLNI
modifications: full-length
B10: the “Ratio of expression Cond. CDLs/Cond. Ghosts” value is reported as 4% and the “Ratio of expression Cond Ghosts/Ghosts” value is on record as 82%.
